Assay results published in US11178823B2, “Systems and methods for using light energy to facilitate penetration of substances in plants” (priority 2014, dated 2021).
At least one structure is not confirmed: it was looked up by name or label, or the drawing left a doubt.

Tested on: HLB bacteria
Test: PCR analysis for presence of HLB in leaves of lased and antimicrobial-treated citrus trees
Format: in vivo
Conditions: 2 fluid ounces per tree, two weeks, Undetermined = no HLB DNA can be detected; for Presence of HLB using PCR analysis, Sample B: leaves at furthest point from lased leaves, not lased or treated; for Presence of HLB using PCR analysis, Sample A: lased and treated leaves
Protocol: The following experimental data is provided to exemplarily illustrate various aspects of the inventive subject matter presented herein. More specifically, the data illustrates the surprising uptake of antimicrobials to effectively treat a plant. Citrus trees were tested in three groups consisting of a control group (trees 1-6), an antimicrobial plus surfactant group (trees 7-12), and an antimicrobial only group (trees 13-18). The trees in each group were lased and, in some instances, treated with an antimicrobial, and analyzed two weeks later to determine the amount of HLB present in the tree using Polymerase Chain Reaction (“PCR”) analysis. It should be noted that all the trees in this experiment had HLB at the beginning of the experiment. The antimicrobial used was oxytetracycline (FireLine™) that includes a surfactant (Tactit) for the antimicrobial plus surfactant group, and oxytetracycline without a surfactant for the antimicrobial only group. The laser parameters included a jump speed of 2000 mm/s, marking speed 850 mm/s, and marking intensity: 70%, and a pulse frequency of 15000 Hz.
The control group (trees 1-6) was lased, but not treated with any antimicrobials and/or surfactants. With the exception of one tree (tree 7) that was only lased, the antimicrobial plus surfactant group was lased and treated with an antimicrobial that comprised a surfactant. With the exception of one tree (tree 13) that was only lased, the antimicrobial only group was lased and treated with only an antimicrobial (with no surfactant). The trees in each group were lased on only one side of the tree (the side comprising the “A” samples). If an antimicrobial (with or without surfactant) was applied, such antimicrobial was applied to the side of the tree that was lased. The antimicrobials were prepared at 200 ppm, 500 ppm, 1000 ppm, 1500 ppm, and 2000 ppm in a 1 gallon volume. Only 2 fluid ounces per tree (10 fluid ounces per group of trees) was used of each concentration for this experiment.
After two weeks, leaves that were lased and, in some instances, treated with an antimicrobial were sampled and analyzed. Additionally, leaves located at the furthest point from the lased leaves (the side comprising the “B” samples), which were not directly lased and/or treated, were sampled and analyzed. Leaves were grinded and prepared for PCR analysis for detecting the presence of HLB. PCR determines if there is live HLB DNA. PCR analysis amplifies and copies small segments of DNA. It then yields enough sample DNA to run the analysis. With this experiment there are six trees per treatment group (control group, antimicrobial plus surfactant group, and antimicrobial only group). Each tree falls under two ranges for determining HLB content, values 29 and lower are considered HLB positive (greening) and values 30 and over are trees considered HLB negative (non-greening). If the analysis takes over 30 PCR cycles then it cannot find any target HLB DNA. If the analysis runs against the maximum of 40 PCR cycles then it becomes indeterminate and it could not find one copy of HLB. It should be noted that there could be numbers over “30” but still be no presence of HLB because there are only artifacts of dead HLB bacteria DNA in numbers over “30”.

[1] = 1000 ppm, with surfactant (Tactit), tree 10

CN(C)[C@@H]1C(O)=C(C(N)=O)C(=O)[C@@]2(O)C(O)=C3C(=O)c4c(O)cccc4[C@@](C)(O)[C@H]3[C@H](O)[C@@H]12 [oxytetracycline]
Undetermined: Presence of HLB using PCR analysis, Sample B (500 ppm, with surfactant (Tactit), tree 9) | Presence of HLB using PCR analysis, Sample A [1] | Presence of HLB using PCR analysis, Sample B [1] | Presence of HLB using PCR analysis, Sample A (1500 ppm, with surfactant (Tactit), tree 11) | Presence of HLB using PCR analysis, Sample A (1500 ppm, without surfactant, tree 17) | Presence of HLB using PCR analysis, Sample A (2000 ppm, without surfactant, tree 18)
